Data as given in PubChem BioAssay AID1259298 (Sanger Institute, 2017).

Test: 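Kinome knock-downs lethal on their own or synergising with anchor drugs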 (primary screen)
System: HT55 human colorectal cancer cell line
Reagents: siRNA pool against human genes
Challenge: anchor drug BYL719 1 µM, cetuximab 5 µg/ml or trametinib 10 nM, or DMSO vehicle alone
Read-out: 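Replicate-averaged viability versus wells of non-targeting pool; knock-down-only robust z-score; per-drug synergy score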
Scale: robust z-score, knock-down alone: higher = more cells remaining; low means essential gene; viability vs control pool, no drug: higher = more viable cells; synergy score with BYL719: higher = stronger synthetic lethality with the drug
Active means: 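Essential when the robust z-score for knock-down alone with DMSO is below -3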
Meaning of the calls: active = essential (knock-down alone); inactive = no change alone
This is a random part of 794 deposited reagents. 20 of all reagents (2.5%) count as active. 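Calls rest only on the knock-down-alone score; drug synergy scores played no part in them.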 Entries without a mark were called inactive. No viability above 1 is reported: the scale is capped. Further read-outs or replicates are left out here. No sequences are given here. The record does not give: the amount of reagent, the time to read-out.

Target gene	robust z-score, knock-down alone	viability vs control pool, no drug (fraction)	synergy score with BYL719
GUK1	0.58	1	-0.114
ROS1	0.161	0.967	-0.0857
ACVR1C	-0.3	0.931	-0.108
DSTYK	0.58	1	-0.209
FGFRL1	0.58	1	-0.163
MARK1	0.58	1	-0.234
FOXP1	-1.26	0.856	-0.0404
CASK	0.58	1	-0.0233
EPHB4	0.58	1	-0.199
RTN4	0.58	1	-0.129
AKT3	-4.25 (active)	0.622	-0.277
SHPK	0.58	1	0.0335
NME2	0.316	0.979	-0.131
SRPK2	0.58	1	-0.0569
NEK2	0.58	1	-0.166
PKDCC	0.58	1	-0.196
PRKCI	-0.34	0.928	-0.198
KCNH8	-0.0793	0.948	-0.0632
RBKS	0.58	1	-0.258
DGKG	0.58	1	-0.272

Hits, among the entries above:
Target gene	robust z-score, knock-down alone	viability vs control pool, no drug (fraction)	synergy score with BYL719
AKT3	-4.25 (active)	0.622	-0.277
